Reference: patent publication US20030221588A1, “Monoazo dyes and their preparation and use” (ILFORD IMAGING SWITZERLAND GmbH., priority 2002, published 2003)

Assay: Color coordinates (L*a*b* values) of ink jet printed samples of inks comprising the dyes
Details: Canon BJC 8500, illuminant D65; for L* (L*a*b* values, Recording Sheet 1) / a* (L*a*b* values, Recording Sheet 1) / b* (L*a*b* values, Recording Sheet 1): ink printed on ILFORD Photo Paper IJP1GP7 (Recording Sheet 1); for L* (L*a*b* values, Recording Sheet 2) / a* (L*a*b* values, Recording Sheet 2) / b* (L*a*b* values, Recording Sheet 2): ink printed on Xerox 4024 DP (Recording Sheet 2)

O=C(Nc1cc(S(=O)(=O)[O-])cc2cc(S(=O)(=O)[O-])c(N=Nc3ccc4c(S(=O)(=O)[O-])cccc4c3S(=O)(=O)[O-])c(O)c12)c1cccs1.[Na+].[Na+].[Na+].[Na+] [Compound No. 10]
L* (L*a*b* values, Recording Sheet 1): 46.6
a* (L*a*b* values, Recording Sheet 1): 81.5
b* (L*a*b* values, Recording Sheet 1): −11.9
L* (L*a*b* values, Recording Sheet 2): 52.9
a* (L*a*b* values, Recording Sheet 2): 65.0
b* (L*a*b* values, Recording Sheet 2): −8.8

CCOc1nc(Nc2ccc(S(=O)(=O)[O-])c(N=Nc3c(S(=O)(=O)[O-])cc4cc(S(=O)(=O)[O-])cc(NC(=O)c5ccccc5)c4c3O)c2)nc(SCCCS(=O)(=O)[O-])n1.[Na+].[Na+].[Na+].[Na+] [II]
L* (L*a*b* values, Recording Sheet 1): 45.6
a* (L*a*b* values, Recording Sheet 1): 83.1
b* (L*a*b* values, Recording Sheet 1): −3.5
L* (L*a*b* values, Recording Sheet 2): 52.9
a* (L*a*b* values, Recording Sheet 2): 66.1
b* (L*a*b* values, Recording Sheet 2): −2.7

O=C(Nc1cc(S(=O)(=O)[O-])cc2cc(S(=O)(=O)[O-])c(N=Nc3ccc4c(S(=O)(=O)[O-])cccc4c3S(=O)(=O)[O-])c(O)c12)c1ccccc1.[Na+].[Na+].[Na+].[Na+] [III]
L* (L*a*b* values, Recording Sheet 1): 46.9
a* (L*a*b* values, Recording Sheet 1): 84.0
b* (L*a*b* values, Recording Sheet 1): −8.2
L* (L*a*b* values, Recording Sheet 2): 53.2
a* (L*a*b* values, Recording Sheet 2): 67.3
b* (L*a*b* values, Recording Sheet 2): −5.8

Cc1ccc(N=Nc2c(S(=O)(=O)[O-])cc3cc(S(=O)(=O)[O-])cc(NC(=O)c4cccs4)c3c2O)c(S(=O)(=O)[O-])c1.[Na+].[Na+].[Na+] [compound 50]
L* (L*a*b* values, Recording Sheet 1): 47.1
a* (L*a*b* values, Recording Sheet 1): 84.0
b* (L*a*b* values, Recording Sheet 1): −14.7
L* (L*a*b* values, Recording Sheet 2): 53.3
a* (L*a*b* values, Recording Sheet 2): 67.5
b* (L*a*b* values, Recording Sheet 2): −10.8

Cc1ccc(N=Nc2c(S(=O)(=O)[O-])cc3cc(S(=O)(=O)[O-])cc(NC(=O)c4ccccc4)c3c2O)c(S(=O)(=O)[O-])c1.[Na+].[Na+].[Na+] [I]
L* (L*a*b* values, Recording Sheet 1): 47.0
a* (L*a*b* values, Recording Sheet 1): 85.1
b* (L*a*b* values, Recording Sheet 1): −10.4
L* (L*a*b* values, Recording Sheet 2): 53.3
a* (L*a*b* values, Recording Sheet 2): 68.7
b* (L*a*b* values, Recording Sheet 2): −7.4
